This is an account of results in patent publication US20150272885A1 (STC UNM, published 2015).

Chains of the proteins cited; added tags and fusions are not shown. Residues count along the entry.
UniProt P52799, residues 28-333: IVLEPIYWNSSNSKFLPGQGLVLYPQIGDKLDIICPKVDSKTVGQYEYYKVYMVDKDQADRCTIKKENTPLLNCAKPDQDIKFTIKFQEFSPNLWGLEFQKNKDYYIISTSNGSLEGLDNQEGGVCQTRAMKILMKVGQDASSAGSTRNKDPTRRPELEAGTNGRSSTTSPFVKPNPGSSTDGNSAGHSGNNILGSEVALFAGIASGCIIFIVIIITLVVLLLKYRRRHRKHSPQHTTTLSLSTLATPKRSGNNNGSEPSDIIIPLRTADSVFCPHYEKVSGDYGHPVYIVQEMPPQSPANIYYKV

These are yes or no findings as the source states them, for the method shown. Some entries that bind do so weakly or less than the wild type.

For this assay, the target named is T1, ephrin B2 (EB2) on cells (human, UniProt P52799 28-333).
T1 construct: whole, on cells; The species is stated as human for the CHO-K1 transfectants; also called human ephrin B2
The assay is described as follows: flow cytometry on HEK 293 cells.

With TGAILHP (conjugated to DOPE in the supported lipid bilayer) [TGAILHP-targeted MSN-SLBs, high peptide valency (1.5 wt % or ~500 peptides/particle)], the binding entry was “binds”.
Consider TGAILHP (conjugated to DOPE in the supported lipid bilayer) [TGAILHP-targeted MSN-SLBs, low peptide valency (0.015 wt % or ~5 peptides/particle)], for which the binding result was “binds”.
